# From PubChem BioAssay AID2284384 (EPA ToxCast)
# Protein sequences, listed by entry. Tags and fused reporters are not part of them. Lines headed by an entry give the natural chain unless they say otherwise; changes in a name come on top.
# UniProt Q07869: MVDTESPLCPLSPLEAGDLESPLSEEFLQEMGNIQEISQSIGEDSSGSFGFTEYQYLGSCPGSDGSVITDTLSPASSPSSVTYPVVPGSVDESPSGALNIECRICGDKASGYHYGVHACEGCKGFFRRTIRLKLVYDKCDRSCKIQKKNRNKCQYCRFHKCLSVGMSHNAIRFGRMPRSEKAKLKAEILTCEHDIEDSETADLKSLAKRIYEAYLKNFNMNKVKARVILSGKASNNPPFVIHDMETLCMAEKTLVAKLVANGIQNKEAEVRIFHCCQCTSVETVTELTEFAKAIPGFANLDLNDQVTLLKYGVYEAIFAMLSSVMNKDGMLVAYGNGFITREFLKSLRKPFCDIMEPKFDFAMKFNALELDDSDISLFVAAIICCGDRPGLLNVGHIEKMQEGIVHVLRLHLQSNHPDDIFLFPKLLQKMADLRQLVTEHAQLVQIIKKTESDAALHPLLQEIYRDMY
# Inconclusive means that the source gave no clear call. Such entries were picked first, then a sample of the others. A potency beside an inconclusive call is a rough fit, not a confirmed value. Activity calls are given as the source filed them. The calls were made as follows: active = hit-call score of the fitted dose curve at least 0.9, where 1 is the maximum; inconclusive = response in the unintended direction; inactive = score below 0.9.
# Biological target: human Peroxisome Proliferator-activated Receptor alpha (PPARa), PPARA (gene 5465) (UniProt Q07869)
# Assay: ERF_US_NR_hPPARA: Eurofins (ERF) Nuclear Receptor (NR) Cell Based Protein-Protein Interaction LeadHunter Assay for human Peroxisome Proliferator-activated Receptor alpha (PPARa) Agonism
# Description: ERF_US_NR_hPPARA is a cell-based, single-readout assay that uses extracted gene-proteins […]. Measurements were taken 5 hours after chemical dosing in a 384-well plate. See PPARalpha Human NHR Cell Based Agonist Protein-Protein Interaction Assay, DiscoverX.ERF_US_NR_hPPARA is an assay component calculated from theERF_US_NR_hPPARA assay. It is designed to measure radioligand binding using a type of binding reporter as detected by scintillation counting with radiometry technology.Data from the assay component ERF_US_NR_hPPARA was analyzed at the assay endpoint, ERF_US_NR_hPPARA, in the positive analysis fitting direction relative to DMSO as the negative control and baseline of activity. Using a type of binding reporter, gain-of-signal activity can be used to understand changes in binding as they relate to gene PPARA. To generalize the intended target to other relatable targets, this assay endpoint is annotated to the nuclear receptor intended target family, where the subfamily is non-steroidal.
# Cells were seeded in a total volume of 20 uL into white walled, 384-well microplates and incubated at 37C overnight prior to testing.Briefly, intermediate dilution of sample stocks was performed to generate 5X sample in assay buffer. 5 uL of 5X sample was added to cells and incubated at 37C for 300 minutes. Final assay vehicle concentration was 1%. The results are expressed as a percent efficacy of the control ligand.
row,SMILES,AC50
1,O=C(O)CCC(F)(F)C(F)(F)C(F)(F)F,inconclusive: 50 µM
2,O=C(Cl)C(F)(F)C(F)(F)C(F)(F)C(F)(F)C(F)(F)C(F)(F)F,inconclusive: 0.0296 µM
3,O=C(CC(=O)C(F)(F)C(F)(F)C(F)(F)F)c1cccs1,active: 12.6 µM
4,O=C(O)C(F)(F)C(F)(F)C(F)(F)C(F)(F)C(F)(F)C(F)(F)F,inconclusive: 50 µM
